Test system: mouse
Test: observation for neurotoxicity symptoms (motility, muscle tonus, respiratory frequency, body temperature, general behaviour)
Type: in vivo
Description: During the experiments described above, the animals were observed during the whole of the experimental period (up to 4 hours) for signs of substance-caused changes of behaviour and neurotoxicity (motility, muscle tonus, respiratory frequency, body temperature and general behaviour). Up to a dosage of 100 mg/kg, in the case of all the tested compounds, no neurotoxic symptoms were ascertained. In comparison hereto, Table 5 sets out the lower limiting dosages of conventional anticonvulsives which, after oral administration, bring about neurotoxicity symptoms in mice.

In the case of `CN1C(=O)CN=C(c2ccccc2)c2cc(Cl)ccc21` [diazepam], the “Neurotoxic limiting dose in the mouse, dose p.o.” value is reported as 40 mg/kg.

Reference: patent US4965283A, “Amino acid esters, process for the preparation thereof and use thereof” (Dr. Willmar Schwabe GmbH & Co., priority 1987, dated 1990)
